Data on four molecules can be found in paper PMC4048286.

Sequences of proteins named here, by UniProt entry; tags and fusion partners are left off. A change or cut given only in a name is not applied to a line headed by its entry.
UniProt D4GZY6: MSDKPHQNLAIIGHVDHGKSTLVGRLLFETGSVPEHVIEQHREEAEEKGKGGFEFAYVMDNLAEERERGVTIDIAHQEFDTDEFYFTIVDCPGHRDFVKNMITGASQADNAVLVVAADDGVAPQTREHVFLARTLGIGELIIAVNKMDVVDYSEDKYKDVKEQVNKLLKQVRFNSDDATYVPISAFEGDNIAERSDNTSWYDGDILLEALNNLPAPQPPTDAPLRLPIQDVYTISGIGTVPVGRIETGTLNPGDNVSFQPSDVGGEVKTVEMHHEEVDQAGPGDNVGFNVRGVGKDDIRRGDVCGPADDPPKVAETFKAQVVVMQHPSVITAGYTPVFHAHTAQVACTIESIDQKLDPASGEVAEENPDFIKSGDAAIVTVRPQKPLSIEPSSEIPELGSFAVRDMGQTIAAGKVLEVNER

In this experiment the target is T1, NcsA with a C-terminal StrepII-tag (Hfx. volcanii HVO_0580, Tuc1/Ncs6 homolog) (Haloferax volcanii) (UniProt D4GSH6).
T1 sequence: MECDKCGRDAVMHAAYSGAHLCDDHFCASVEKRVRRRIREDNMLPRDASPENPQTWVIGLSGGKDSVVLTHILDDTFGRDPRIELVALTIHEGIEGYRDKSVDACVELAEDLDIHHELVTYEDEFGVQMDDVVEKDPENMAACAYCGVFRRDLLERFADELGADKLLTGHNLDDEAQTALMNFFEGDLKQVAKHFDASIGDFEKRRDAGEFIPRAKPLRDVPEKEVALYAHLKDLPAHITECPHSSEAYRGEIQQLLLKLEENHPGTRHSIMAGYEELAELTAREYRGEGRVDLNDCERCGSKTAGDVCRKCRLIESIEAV
Kind of experiment: affinity purification with mass spectrometry; NcsA-StrepII purified by Strep-Tactin chromatography from ΔncsA strains (with and without Flag-SAMP1/2), compared to empty vector control; trypsin digest, LC-MS/MS (LTQ Orbitrap).

These are yes or no findings as the source states them, for the method shown. Binding seen in cells or lysates may run through a third protein. A yes stands for co-enrichment or nearness to the bait. Other partners may have been found. Tags and fused reporters may be left off the sequences shown.

Consider “Translation elongation factor aEF-1α (from UniProt D4GZY6)”, for which the binding entry was “binds”.

B1: N-terminal Flag-tagged SAMP2 (small archaeal modifier protein 2) (protein, UniProt D4GZE7 1-66)
chain: MNVTVEVVGEETSEVAVDDDGTYADLVRAVDLSPHEVTVLVDGRPVPEDQSVEVDRVKVLRLIKGG
With B1, the binding result is “binds”.

B2: Proteasome-activating nucleotidase A/1 (PAN-A/1) (protein, UniProt D4GUJ7 1-406)
chain: MMTDTVDDVDLPYDKDSASQQEKITALQERLEVLETQNEEMRDKLLDTNAENNKYQQKLERLTHENKKLKQSPLFVATVQEITDEGVIIKQHGNNQEALTEVTDEMREELEPDARVAVNNSLSIVKRLDKETDVRARVMQVEHSPDVTYEDIGGLEEQMQEVRETVEMPLDRPEMFAEVGIDPPSGVLLYGPPGTGKTMLAKAVANQTNASFIKMAGSELVHKFIGEGAKLVRDLFEVARENEPAVIFIDEIDAIASKRTDSKTSGDAEVQRTMMQLLAEMDGFDERGNIRIIAATNRFDMLDPAILRPGRFDRLIEVPKPNEDGREIIFQIHTRKMNVSDDVDFVELAEMADNASGADIKAVCTEAGMFAIRDDRTEIFMQDFVDAWEKIQQEASDETEVSRAFA
As to B2, the binding entry is “binds”.

B3: UbaA (ubiquitin-activating E1 enzyme homolog of archaea) (enzyme, UniProt D4GSF3 1-270)
chain: MTLSLDATQLDRYSRHIIMDEVGPEGQGRLLSSRVVVVGAGGLGAPAIQYLAAVGVGELVVVDDDVVERSNLQRQVVHCDDDVGTPKAESAAAFVRGLNPDVSVEPVEARVDKSNVHEVVAGSDVVVDASDNFPTRYLLNDVCRFEGIPLVHGAIYKFEGQATTLVPDGPCYRCLFPEAPEPGTVPDCATTGVLGVLPGTVGCIQATEAMKLLLDEGEALDGRLLFYDAMDMTFETVPYRTNPDCPVCGEGGVDSIEDIDYVESCAISLD
For the molecule B3, the binding result was “binds”.
